PubChem BioAssay AID602196, INSERM – 2012
This is a random part of about 23,000 reagents. 455 of them (2%) count as active. 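Active includes both protection and sensitisation; some change values fall well beyond the stated -50 to +50 range.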 Entries without a mark were called inactive. No sequences are given here. The record does not give: the amount of reagent.

- Aim: 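Modifiers of cisplatin sensitivity in A549 cells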
- System: human A549 lung cancer cells
- Knock-down reagent: siRNA pair against human genes
- Time to read-out: 48 h transfection before cisplatin; time from cisplatin to read-out not stated
- Conditions: cisplatin at a dose killing half of control-siRNA cells; exact dose and duration not given
- Measured: 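Cisplatin cell death as a shift from the 50% death seen with control siRNA; siRNAs toxic or growth-blocking alone scored 0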
- Reading the numbers: two-siRNA summed score (-2 to +2): higher = both siRNAs protect from cisplatin killing; -2 means both sensitise; mean protection from cisplatin (shift in death) and protection from cisplatin (shift in death), siRNA C and protection from cisplatin (shift in death), siRNA D: higher = protection from cisplatin killing
- Call rule: 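siRNAs harmful alone (LDH or WST-1) get 0; others get +1 for less and -1 for more cisplatin killing; genes are active when the two siRNAs give the same sign, summing to ±2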
- Meaning of the calls: active = both siRNAs shift cisplatin killing the same way; inactive = no consistent shift, or siRNA harmful alone

| Gene | PubChem SID | two-siRNA summed score (-2 to +2) | mean protection from cisplatin (shift in death) (%) | protection from cisplatin (shift in death), siRNA C (%) | protection from cisplatin (shift in death), siRNA D (%) |
| --- | --- | --- | --- | --- | --- |
| PSTPIP1 | SID131508128 | 0 | 0.7 | 0.7 | 0.6 |
| CAMK2N1 | SID131504950 | 0 | -4.1 | -4.7 | -3.5 |
| LOC442070 | SID131518256 | 0 | 17.6 | 10.4 | 24.9 |
| POP5 | SID131510899 | 0 | 3.7 | -2.2 | 9.7 |
| PSME4 | SID131513603 | 0 | 6.8 | 11.4 | 2.1 |
| MC1R | SID131501756 | -1 | -7.5 | -0.2 | -14.9 |
| COX7A2L | SID131508135 | 0 | 0.7 | 5 | -3.7 |
| LOC442065 | SID131518356 | 0 | 18.6 | 8.1 | 29.2 |
| FAM117B | SID131509930 | 0 | 2.7 | 0.4 | 5 |
| LOC440594 | SID131518639 | 0 | 23.1 | 30 | 16.1 |
| FBXO10 | SID131506382 | 0 | -1.6 | 2.7 | -5.9 |
| IRX5 | SID131521868 | 1 | 15.2 | 4.7 | 25.8 |
| LOC442508 | SID131520441 | 1 | 9.9 | 3.6 | 16.3 |
| LGALS17A | SID131509901 | 0 | 2.6 | -0.7 | 6 |
| SPTAN1 | SID131510442 | 0 | 3.3 | 8.5 | -2 |
| ZNF586 | SID131510778 | 0 | 3.6 | 3.7 | 3.5 |
| PDZRN3 | SID131501149 | -1 | -12 | -11.9 | -12.1 |
| RAB43P1 | SID131512436 | 0 | 5.5 | 0.3 | 10.6 |
| ZNF557 | SID131509740 | 0 | 2.4 | -4 | 8.8 |
| ERAP2 | SID131501467 | -1 | -9.6 | 4.2 | -23.4 |
| LOC149281 | SID131504138 | 0 | -6.4 | 20.3 | -33 |
| LOC388308 | SID131518201 | 0 | 17.2 | -12.5 | 46.9 |
| EPHX2 | SID131501493 | -1 | -9.4 | -18 | -0.9 |

Records above whose gene name starts with F or f (2):
| Gene | PubChem SID | two-siRNA summed score (-2 to +2) | mean protection from cisplatin (shift in death) (%) | protection from cisplatin (shift in death), siRNA C (%) | protection from cisplatin (shift in death), siRNA D (%) |
| --- | --- | --- | --- | --- | --- |
| FAM117B | SID131509930 | 0 | 2.7 | 0.4 | 5 |
| FBXO10 | SID131506382 | 0 | -1.6 | 2.7 | -5.9 |
